At least one read-out could not be matched to a standard name with certainty. At least one structure is not confirmed: it was looked up by name or label, or the drawing left a doubt.
Tested on: creatine kinase (CK)
Test: HAECT-1 creatine kinase (CK) expression assay in Ad5-wt-ER infected cells
Assay type: cell-based, human
Conditions: induction of creatine kinase expression; Ad5-wt-ER infected HAECT-1 cells
Experimental: T-175 flasks of 100% confluent HAECT-1 cells (immortalized human aortic endothelial cells) were washed with 8 mL of HBSS (HEPES buffered saline solution) and infected for four hours with 6 mL of a 1:10 dilution of Ad5-wt-hERα virus (an adenovirus transfection vector that mediates CMV promoter driven expression of human ERα) in phenol red free Endothelial Cell Basal medium (Clonetics, San Diego Calif., Catalog #CC-3129) containing 0.25% bovine serum albumin (EBM-BSA). After four hours, the cells were washed with EBM-BSA and incubated overnight in the same medium. Following overnight incubation, the cells were washed with EBM-BSA and infected for 2 hours with 6 mL of a 1:10 dilution of Ad5-3×(NFκB). […] The cells were then washed, trypsinized, counted and resuspended in 95% FBS/5% dimethylsulfoxide at a concentration of 4×10^6 cells/mL, frozen as 1 or 5 mL aliquots in cryo-vials and stored at −150° C. […]
ERα infected HAECT-1 cells or control cells were thawed, diluted 42× in warm EBM-BSA, plated into 96-well plates at 0.1 mL/well and incubated for 4 h at 34° C. […] Luciferase was determined on a Wallac Victor^2 Luminometer (Gaithersburg, Md.) using 10 μL of lysate and mixing with 100 μL of Promega Luciferase Assay reagent. Creatine kinase was determined from the rate of increase in A340 following addition of 100 μL of CK assay reagent (Sigma, cat. No 47-10) to the remainder of the cell lysate. […]

Compound	CK IC50	IC50 [nM]
C[C@H]1c2cc(F)ccc2-c2ccccc2N1S(=O)(=O)c1ccc(O)cc1 [Example 8, 4-[(S)-8-Fluoro-6-methyl-6H-phenanthridine-5-sulfonyl]-phenol]	Inactive	
C[C@]12CC[C@@H]3c4ccc(O)cc4CC[C@H]3[C@@H]1CC[C@@H]2O [Example E2, 17-β-estradiol, reference compound]		5.8

Reference: patent US7378427B2, “Processes for preparing 6-alkyl-5-arylsulfonyl-dihydrophenanthridines” (Wyeth, priority 2004, dated 2008)
